Some values come without a unit; they compare only within their column.
Legend:
[1] = Serum ethanolamine phospholipid levels in human cohorts (dementia severity, post-mortem pathology, age) by flow-injection MS/MS
[2] = Serum ethanolamine phospholipid ratios to PtdEt 16:0/18:0 (M01) in human cohorts
[3] = serum, females, post mortem SDAT
[4] = serum, females, post mortem control

Compound: CCCCCCCC/C=C\CCCCCCCC(=O)OC(CO/C=C\CCCCCCCCCCCCCC)COP(=O)(O)OCCN (centres unmarked) [Metabolite M15, Plasmenyl 16:0/18:1]
- Ratio of serum levels ([1]; AD, All to CN, Male): 0.842
- Ratio of serum levels ([1]; ADAS 5-19 to CN, Male): 0.883
- Ratio of serum levels ([1]; ADAS 20-39 to 5-19, Male): 0.917
- Ratio of serum levels ([1]; ADAS 20-39 to CN, Male): 0.810
- Ratio of serum levels ([1]; ADAS 40-70 to 5-19, Male): 0.888
- Ratio of serum levels ([1]; ADAS 40-70 to 20-39, Male): 0.968
- Ratio of serum levels ([1]; ADAS 40-70 to CN, Male): 0.784
- Serum level, Mean ([1]; Cognitive Normal, Female): 0.073
- Average serum level, Mean ([1]; Cognitive Normal, Male): 0.076
- Serum level, Mean ([1]; Post Mortem Ctl, Male): 0.045
- Serum level, Mean ([1]; Post Mortem SDAT Male): 0.029
- Ratio of serum levels ([1]; Post mortem SDAT vs Control, Male): 0.648
- Serum level, Mean ([1]; SDAT, ADAS 5-19, Female): 0.061
- Average serum level, Mean ([1]; SDAT, ADAS 5-19, Male): 0.067
- Serum level, Mean ([1]; SDAT, ADAS 20-39, Female): 0.061
- Average serum level, Mean ([1]; SDAT, ADAS 20-39, Male): 0.062
- Serum level, Mean ([1]; SDAT, ADAS 40-70, Female): 0.056
- Average serum level, Mean ([1]; SDAT, ADAS 40-70, Male): 0.060
- Serum level, Mean ([1]; SDAT_all, Female): 0.059
- Average serum level, Mean ([1]; SDAT_all, Male): 0.064
- Ratio, ADAS 5-19 to CN, Female ([1]; serum level ratio, females, ADAS 5-19 vs CN): 0.835
- Ratio, ADAS 20-39 to 5-19, Female ([1]; serum level ratio, females, ADAS 20-39 vs ADAS 5-19): 0.996
- Ratio, ADAS 20-39 to CN, Female ([1]; serum level ratio, females, ADAS 20-39 vs CN): 0.831
- Ratio, ADAS 40-70 to 5-19, Female ([1]; serum level ratio, females, ADAS 40-70 vs ADAS 5-19): 0.922
- Ratio, ADAS 40-70 to 20-39, Female ([1]; serum level ratio, females, ADAS 40-70 vs ADAS 20-39): 0.926
- Ratio, ADAS 40-70 to CN, Female ([1]; serum level ratio, females, ADAS 40-70 vs CN): 0.770
- Ratio, 50-59 vs. 40-49, Female ([1]; serum level ratio, females, age 50-59 vs 40-49): 0.864
- Ratio, 60-69 vs. 40-49, Female ([1]; serum level ratio, females, age 60-69 vs 40-49): 0.841
- Ratio, 70+ vs. 40-49, Female ([1]; serum level ratio, females, age 70+ vs 40-49): 0.871
- Ratio, AD, All to CN, Female ([1]; serum level ratio, females, all AD vs cognitively normal): 0.811
- Ratio, Autopsy AD vs. Control, Female ([1]; serum level ratio, females, autopsy AD vs control): 0.577
- Ratio, 50-59 vs. 40-49, Male ([1]; serum level ratio, males, age 50-59 vs 40-49): 0.987
- Ratio, 60-69 vs. 40-49, Male ([1]; serum level ratio, males, age 60-69 vs 40-49): 0.985
- Ratio, 70+ vs. 40-49, Male ([1]; serum level ratio, males, age 70+ vs 40-49): 1.020
- Mean serum level, Age Ctl, 30-39, Female ([1]; serum, females, age 30-39): 0.071
- Mean serum level, Age Ctl, 40-49, Female ([1]; serum, females, age 40-49): 0.079
- Mean serum level, Age Ctl, 50-59, Female ([1]; serum, females, age 50-59): 0.068
- Mean serum level, Age Ctl, 60-69, Female ([1]; serum, females, age 60-69): 0.066
- Mean serum level, Age Ctl, 70+, Female ([1]; serum, females, age 70+): 0.069
- Mean serum level, Post Mortem SDAT, Female [1, 3]: 0.034
- Mean serum level, Post Mortem Ctl, Female [1, 4]: 0.060
- Mean serum level, Age Ctl, 30-39, Male ([1]; serum, males, age 30-39): 0.085
- Mean serum level, Age Ctl, 40-49, Male ([1]; serum, males, age 40-49): 0.075
- Mean serum level, Age Ctl, 50-59, Male ([1]; serum, males, age 50-59): 0.074
- Mean serum level, Age Ctl, 60-69, Male ([1]; serum, males, age 60-69): 0.074
- Mean serum level, Age Ctl, 70+, Male ([1]; serum, males, age 70+): 0.076
- Ratio of ethanolamine phospholipid ratios to M01 between cohorts ([2]; AD, All to CN, Male): 0.803
- Ratio of ethanolamine phospholipid ratios to M01 between cohorts ([2]; ADAS 5-19 to CN, Male): 0.837
- Ratio of ethanolamine phospholipid ratios to M01 between cohorts ([2]; ADAS 20-39 to CN, Male): 0.792
- Ratio of ethanolamine phospholipid ratios to M01 between cohorts ([2]; ADAS 40-70 to CN, Male): 0.762
- Average serum ethanolamine phospholipid ratio to M01, Mean ([2]; Cognitive Normal, Male, serum): 0.682
- Average serum ethanolamine phospholipid ratio to M01, Mean ([2]; SDAT, ADAS 5-19, Male, serum): 0.571
- Average serum ethanolamine phospholipid ratio to M01, Mean ([2]; SDAT, ADAS 20-39, Male, serum): 0.541
- Average serum ethanolamine phospholipid ratio to M01, Mean ([2]; SDAT, ADAS 40-70, Male, serum): 0.520
- Average serum ethanolamine phospholipid ratio to M01, Mean ([2]; SDAT_all, Male, serum): 0.548
- Ethanolamine Phospholipid Ratio to M01, Mean, Age Ctl, 30-39, Female ([2]; human serum, females aged 30-39): 0.706
- Ethanolamine Phospholipid Ratio to M01, Mean, Age Ctl, 40-49, Female ([2]; human serum, females aged 40-49): 0.720
- Ethanolamine Phospholipid Ratio to M01, Mean, Age Ctl, 50-59, Female ([2]; human serum, females aged 50-59): 0.699
- Ratio of Ethanolamine Phospholipid Ratio to M01, 50-59 vs. 40-49, Female ([2]; human serum, females aged 50-59 vs. females aged 40-49): 0.970
- Ethanolamine Phospholipid Ratio to M01, Mean, Age Ctl, 60-69, Female ([2]; human serum, females aged 60-69): 0.560
- Ratio of Ethanolamine Phospholipid Ratio to M01, 60-69 vs. 40-49, Female ([2]; human serum, females aged 60-69 vs. females aged 40-49): 0.778
- Ethanolamine Phospholipid Ratio to M01, Mean, Age Ctl, 70+_Female ([2]; human serum, females aged 70+): 0.578
- Ratio of Ethanolamine Phospholipid Ratio to M01, 70+ vs. 40-49, Female ([2]; human serum, females aged 70+ vs. females aged 40-49): 0.802
- Ratio of Ethanolamine Phospholipid Ratio to M01, 50-59 vs. 40-49, Male ([2]; human serum, males aged 50-59 vs. males aged 40-49): 1.026
- Ratio of Ethanolamine Phospholipid Ratio to M01, 60-69 vs. 40-49, Male ([2]; human serum, males aged 60-69 vs. males aged 40-49): 0.862
- Ratio of Ethanolamine Phospholipid Ratio to M01, 70+ vs. 40-49, Male ([2]; human serum, males aged 70+ vs. males aged 40-49): 0.896
- Ratio of ethanolamine phospholipid ratio to M01, ADAS 5-19 to CN, Female ([2]; serum, females, ADAS 5-19 vs cognitive normal): 0.900
- Ratio of ethanolamine phospholipid ratio to M01, ADAS 20-39 to 5-19, Female ([2]; serum, females, ADAS 20-39 vs ADAS 5-19): 0.998
- Ratio of ethanolamine phospholipid ratio to M01, ADAS 20-39 to CN, Female ([2]; serum, females, ADAS 20-39 vs cognitive normal): 0.897
- Ratio of ethanolamine phospholipid ratio to M01, ADAS 40-70 to 5-19, Female ([2]; serum, females, ADAS 40-70 vs ADAS 5-19): 0.874
- Ratio of ethanolamine phospholipid ratio to M01, ADAS 40-70 to 20-39, Female ([2]; serum, females, ADAS 40-70 vs ADAS 20-39): 0.876
- Ratio of ethanolamine phospholipid ratio to M01, ADAS 40-70 to CN, Female ([2]; serum, females, ADAS 40-70 vs cognitive normal): 0.786
- Ethanolamine phospholipid ratio to M01, Mean, SDAT, ADAS 5-19, Female ([2]; serum, females, SDAT ADAS 5-19): 0.564
- Ethanolamine phospholipid ratio to M01, Mean, SDAT, ADAS 20-39, Female ([2]; serum, females, SDAT ADAS 20-39): 0.563
- Ethanolamine phospholipid ratio to M01, Mean, SDAT, ADAS 40-70, Female ([2]; serum, females, SDAT ADAS 40-70): 0.493
- Ratio of ethanolamine phospholipid ratio to M01, AD, All to CN, Female ([2]; serum, females, all AD vs cognitive normal): 0.860
- Ethanolamine phospholipid ratio to M01, Mean, SDAT_all Female ([2]; serum, females, all SDAT): 0.539
- Ratio of ethanolamine phospholipid ratio to M01, Autopsy AD vs. Control, Female ([2]; serum, females, autopsy AD vs post mortem control): 0.889
- Ethanolamine phospholipid ratio to M01, Mean, Cognitive Normal, Female ([2]; serum, females, cognitive normal): 0.627
- Ethanolamine phospholipid ratio to M01, Mean, Post Mortem SDAT Female [2, 3]: 0.301
- Ethanolamine phospholipid ratio to M01, Mean, Post Mortem Ctl, Female [2, 4]: 0.339
- Ratio of ethanolamine phospholipid ratio to M01, ADAS 20-39 to 5-19, Male ([2]; serum, males, SDAT ADAS 20-39 vs ADAS 5-19): 0.947
- Ratio of ethanolamine phospholipid ratio to M01, ADAS 40-70 to 5-19, Male ([2]; serum, males, SDAT ADAS 40-70 vs ADAS 5-19): 0.911
- Ratio of ethanolamine phospholipid ratio to M01, ADAS 40-70 to 20-39, Male ([2]; serum, males, SDAT ADAS 40-70 vs ADAS 20-39): 0.962
- Ethanolamine phospholipid ratio to M01, Mean, Age Ctl, 30-39, Male ([2]; serum, males, age control 30-39): 0.699
- Ethanolamine phospholipid ratio to M01, Mean, Age Ctl, 40-49, Male ([2]; serum, males, age control 40-49): 0.658
- Ethanolamine phospholipid ratio to M01, Mean, Age Ctl, 50-59, Male ([2]; serum, males, age control 50-59): 0.675
- Ethanolamine phospholipid ratio to M01, Mean, Age Ctl, 60-69, Male ([2]; serum, males, age control 60-69): 0.567
- Ethanolamine phospholipid ratio to M01, Mean, Age Ctl, 70+_Male ([2]; serum, males, age control 70+): 0.590
- Ethanolamine phospholipid ratio to M01, Mean, Post Mortem SDAT Male ([2]; serum, males, post mortem SDAT): 0.344
- Ratio of ethanolamine phospholipid ratio to M01, SDAT vs Control (post mortem, males) ([2]; serum, males, post mortem SDAT vs post mortem control): 0.918
- Ethanolamine phospholipid ratio to M01, Mean, Post Mortem Ctl, Male ([2]; serum, males, post mortem control): 0.375
